Protein sequences can lack the tags named with them. Construct, isoform or probe ends are uncertain for at least one entry. At least one verdict was read from the data and is not stated in words by the source.

In publication PMC9025068, “DNA-Binding Properties of a Novel Crenarchaeal Chromatin-Organizing Protein in Sulfolobus acidocaldarius” (Biomolecules, 2022) one finds binding result and Kd data, which are given here for 1 sequence.

The target of the data set is T1, Sul12a (Sulfolobus acidocaldarius) (UniProt Q4JA12).
T1 sequence (looked up): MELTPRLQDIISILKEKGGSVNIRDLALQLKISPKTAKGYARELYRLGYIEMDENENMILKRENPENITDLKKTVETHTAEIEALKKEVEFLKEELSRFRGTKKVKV
Put plainly: EMSA. The note with it: 20 mM Tris-HCl pH 8.0, 1 mM MgCl2, 0.1 mM DTT, 12.5% glycerol, 50 mM NaCl, 0.4 mM EDTA, 37 C 20 min, 0.1 nM 32P-DNA with 25 ug/mL salmon sperm DNA (radiolabelled EMSA), recombinant protein, residues 1-107, protein details: N-terminal His (pET-45b(+)), label: 5'-32P, probe letters rebuilt from the primers and the genome; for Kd: KDapp, salmon sperm DNA 25 ug/mL.

Regarding “TTATGCATTGGAAAGAGACGATATAAAGAAAACTCTAGATAAACTTGACGGATTGGATAAGGAGGTAATAGAACTTAAGCCTTCTGCCTCATTAAACACGTCAACAGAACAGTCAAATAAGAACGAGGGTAATAAGTCTGAAGTGTCTGTTCCAATACCAGTAAGGGTAATAAATACTTTATGAAGAATTAGTGACATAGGATGTTTGATAAGTTATCGATAATTTTTAATAGTGATAGAAAGAGAAAGGTGCATTTGTCCAAAGCGATAACTGAAATATCTTTAAAATTAAAAGAGCAGCAGGATAGATTAGACGAAGCAATAAGGAGATTAAGGG (double strand) [Enrichment probe 9 (F1), Saci_1374]”, the binding result (32 uM protein, single probe) is “binds”. The Kd is, setting by setting: (F1 + F2 mixture) 3.9 µM; (F1 + F3 mixture) 2.3 µM.
